Measurements taken from patent US11484543B2, “Compositions and methods for diagnosing and treating diseases and disorders associated with mutant KCNJ5” (The Rockefeller University, priority 2017, dated 2022).
Positions count from the first letter of the chain named. At least one compound was matched to its structure with a doubt left.

Tests used:
KCNJ5^G151R = target: T1, KCNJ5^G151R (Homo sapiens, UniProt P48544, G151R); format: cell-based; details: 10 μM
T1 construct: expressed in transfected cells
T1 sequence (P48544 1-419 G151R): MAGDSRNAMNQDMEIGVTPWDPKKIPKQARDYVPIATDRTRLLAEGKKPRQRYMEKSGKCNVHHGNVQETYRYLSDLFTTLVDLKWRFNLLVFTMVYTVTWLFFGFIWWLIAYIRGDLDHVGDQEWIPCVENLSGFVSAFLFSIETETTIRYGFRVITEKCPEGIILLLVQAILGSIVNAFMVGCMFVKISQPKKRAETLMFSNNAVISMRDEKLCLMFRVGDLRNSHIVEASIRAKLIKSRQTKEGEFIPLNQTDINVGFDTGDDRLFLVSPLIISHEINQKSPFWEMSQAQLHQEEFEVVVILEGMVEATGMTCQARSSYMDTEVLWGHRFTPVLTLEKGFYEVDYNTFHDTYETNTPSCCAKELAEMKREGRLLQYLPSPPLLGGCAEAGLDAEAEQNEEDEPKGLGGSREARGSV
Experimental: (§1) WT or mutant human KCNJ5 cDNAs (Choi et al., 2011, Science 331:768-772) were subcloned into the pcDNA5/FRT/TO vector using BamHI and HindIII. Single copies of WT or mutant human KCNJ5 cDNAs expressed under the control of tetracycline-inducible promoter were introduced into HEK293 cells using the Flp-in T-Rex System (Invitrogen) according to the manufacturer's instructions. Cells were grown in selective media containing 10% Tet-system approved FBS (Clontech) until induction.
(§2) Assay plates were centrifuged and incubated overnight at 37° C. 20 nL was transferred from the compound source plate to the cell assay plate using an Aquarius (Tecan) with a 384-well pin tool (V&P Scientific). The final concentration of compound for screening was 10 μM and the final DMSO concentration was 0.1%. […] Luminescence was read on an Envision plate reader (PerkinElmer) with 0.3 second sampling time per well. Raw data (luminescence counts per second) was normalized to percent effect by the formula 100−(((sample−negative control mean)/(positive control mean−negative control mean))*100).
(§3) Data was analyzed using the programs Excel (Microsoft) and Prism (GraphPad). […]
(§4) Cellular ATP levels were measured as a proxy for cell viability, using a commercially available luciferase assay (Crouch et al., 1993, Proc. Natl. Acad. Sci. U.S.A. 109:2533-2538). […]

KCNJ5^L168R = target: T2, KCNJ5^L168R (Homo sapiens, UniProt P48544, L168R); test: Cell viability assay (ATP, CellTiter-Glo): rescue of KCNJ5^L168R-induced lethality in inducible HEK293 cells; format: cell-based; details: tested at 1.1, 3.3 and 10 μM
T2 construct: expressed in transfected cells
T2 sequence (P48544 1-419 L168R): T1 sequence (P48544 1-419 G151R) with R151G, L168R
Experimental: as §1, §2, §3, §4

| SMILES | activity against KCNJ5^G151R in the primary screen (KCNJ5^G151R) | dose response on KCNJ5^L168R (KCNJ5^L168R) |
| --- | --- | --- |
| CC[C@H]1OC(=O)[C@H](C)[C@@H](O[C@H]2C[C@@](C)(OC)[C@@H](O)[C@H](C)O2)[C@H](C)[C@@H](O[C@@H]2O[C@H](C)C[C@H](N(C)C)[C@H]2O)[C@](C)(O)C[C@@H](C)[C@@H]2N[C@@H](COCCOC)O[C@H]([C@H]2C)[C@]1(C)O [Dirithromycin, dirithromycin] | little or no activity |  |
| CCC(=O)O[C@H]1[C@H](O[C@@H]2[C@@H](C)[C@H](O[C@H]3C[C@@](C)(OC)[C@@H](O)[C@H](C)O3)[C@@H](C)C(=O)O[C@H](CC)[C@@](C)(O)[C@H](O)[C@@H](C)C(=O)[C@H](C)C[C@@]2(C)O)O[C@H](C)C[C@@H]1N(C)C [erythromycin estolate] |  | showed a dose response |
| CO[C@H]1C[C@@H]2CC[C@@H](C)[C@@](O)(O2)C(=O)C(=O)N2CCCC[C@H]2C(=O)O[C@H]([C@H](C)C[C@@H]2CC[C@@H](O)[C@H](OC)C2)CC(=O)[C@H](C)/C=C(\C)[C@@H](O)[C@@H](OC)C(=O)[C@H](C)C[C@H](C)/C=C/C=C/C=C/1C [rapamycin] | little or no activity |  |
